PubChem BioAssay AID493246 – Drosophila RNAi Screening Center – 2011
Aim: 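Identify essential fly genes by loss of cell viability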 (primary screen). Cells: Drosophila Kc and S2R+ cells. Reagent: long dsRNA against Drosophila genes. Measurement: 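Cell number per well after knock-down, printed as raw plate values; calls were based on per-plate z-scores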. Scale: Kc cell number and S2R+ cell number: higher = more cells remaining. Call rule: 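Active when the per-plate z-score of cell number is 3 or more in the direction of fewer cells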.
In all, the deposit lists about 21,000 reagents; below is a random part of those that have a named target and a result. Over the whole deposit, 429 (2%) got an active call. 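Values are raw and not normalised between plates; calls rest on per-plate z-scores that were not deposited.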 Reagents against one gene are numbered here. The record does not give: the amount of reagent, the time to read-out.

| Kc cell number, rep 1 | Kc cell number, rep 2 | S2R+ cell number, rep 1 | S2R+ cell number, rep 2 | Outcome | Gene | reagent |
| --- | --- | --- | --- | --- | --- | --- |
| 2.89e5 | – | 4.78e5 | – | active | Rpn2 (GeneID 43449) | 1 |
| 1.64e6 | 1.94e6 | 1.16e6 | 1.32e6 | inactive | nkd (GeneID 44843) | 1 |
| 5.63e5 | – | 8.18e5 | – | inactive | Pglym78 (GeneID 43447) | 1 |
| 1.40e6 | 1.40e6 | 1.24e6 | 1.27e6 | inactive | CG12520 (GeneID 39466) | 1 |
| 1.38e6 | 1.34e6 | 1.16e6 | 1.13e6 | inactive | Rexo5 (GeneID 38740) | 1 |
| 1.47e6 | 1.58e6 | 1.23e6 | 1.29e6 | inactive | Veneno (GeneID 41000) | 1 |
| 1.43e6 | 1.45e6 | 9.41e5 | 1.05e6 | inactive | CG33758 (GeneID 3772381) | 1 |
| 1.60e6 | 1.62e6 | 1.03e6 | 1.18e6 | inactive | CG32240 (GeneID 317933) | 1 |
| 1.66e6 | 1.65e6 | 1.24e6 | 1.33e6 | inactive | slif (GeneID 40510) | 1 |
| 1.66e6 | 1.62e6 | 1.10e6 | 1.20e6 | inactive | Lint-O (GeneID 31254) | 1 |
| 1.33e6 | 1.42e6 | 1.16e6 | 1.12e6 | inactive | CG3107 (GeneID 35475) | 1 |
| 1.39e6 | 1.44e6 | 1.25e6 | 1.38e6 | inactive | Grx3 (GeneID 34745) | 1 |
| 1.45e6 | 1.44e6 | 9.94e5 | 1.13e6 | inactive | mRpL28 (GeneID 33715) | 1 |
| 1.41e6 | 1.51e6 | 1.20e6 | 1.31e6 | inactive | ORMDL (GeneID 40404) | 1 |
| 1.48e6 | 1.77e6 | 1.04e6 | 1.09e6 | inactive | CG42340 (GeneID 7354472) | 1 |
| 1.51e6 | 1.51e6 | 1.01e6 | 1.11e6 | inactive | CG42340 (GeneID 7354472) | 2 |
| 1.53e6 | 1.39e6 | 9.71e5 | 1.08e6 | inactive | CG42340 (GeneID 7354472) | 3 |
| 1.30e6 | 1.33e6 | 1.14e6 | 1.19e6 | inactive | CG7430 (GeneID 39988) | 1 |
| 1.31e6 | 1.35e6 | 9.93e5 | 1.06e6 | inactive | Cyp6g1 (GeneID 36316) | 1 |
| 1.54e6 | 1.65e6 | 1.38e6 | 1.43e6 | inactive | CG5539 (GeneID 37766) | 1 |
| 1.61e6 | 1.36e6 | 9.81e5 | 1.42e6 | inactive | CG12017 (GeneID 38404) | 1 |
| 1.20e6 | 1.39e6 | 1.12e6 | 1.16e6 | inactive | wal (GeneID 36252) | 1 |
| 5.37e5 | – | 8.19e5 | – | inactive | CG2061 (GeneID 32042) | 1 |
| 1.34e6 | 1.40e6 | 1.14e6 | 1.39e6 | inactive | St1 (GeneID 37742) | 1 |
| 1.43e6 | 1.48e6 | 1.35e6 | 1.23e6 | inactive | Nulp1 (GeneID 38897) | 1 |
| 1.52e6 | 1.49e6 | 1.08e6 | 1.17e6 | inactive | CG5321 (GeneID 32399) | 1 |
| 1.79e6 | 1.86e6 | 1.12e6 | 1.23e6 | inactive | CAH9 (GeneID 43264) | 1 |
| 1.26e6 | 1.32e6 | 1.08e6 | 1.14e6 | inactive | Hsf (GeneID 37068) | 1 |
| 1.61e6 | 1.62e6 | 1.35e6 | 1.39e6 | inactive | Hr96 (GeneID 42993) | 1 |
| 1.51e6 | 1.48e6 | 9.84e5 | 1.12e6 | inactive | Adar (GeneID 31130) | 1 |
| 1.52e6 | 1.48e6 | 1.26e6 | 1.36e6 | inactive | CG16865 (GeneID 34788) | 1 |
| 1.34e6 | 1.43e6 | 1.30e6 | 1.24e6 | inactive | CG3306 (GeneID 39116) | 1 |
| 1.69e6 | 1.76e6 | 8.96e5 | 1.02e6 | inactive | CG3726 (GeneID 31525) | 1 |
| 1.51e6 | 1.50e6 | 1.14e6 | 1.23e6 | inactive | CG14053 (GeneID 31197) | 1 |
| 1.56e6 | 1.61e6 | 1.18e6 | 1.31e6 | inactive | CG13186 (GeneID 36294) | 1 |
| 1.32e6 | 1.37e6 | 1.12e6 | 1.14e6 | inactive | CG4714 (GeneID 36470) | 1 |
| 1.51e6 | 1.56e6 | 1.12e6 | 1.15e6 | inactive | CG8708 (GeneID 35792) | 1 |
| 1.24e6 | 1.28e6 | 1.25e6 | 1.27e6 | inactive | Ilp4 (GeneID 39152) | 1 |
| 1.48e6 | 1.49e6 | 1.02e6 | 1.15e6 | inactive | capu (GeneID 33611) | 1 |
| 1.51e6 | 1.51e6 | 9.75e5 | 1.05e6 | inactive | capu (GeneID 33611) | 2 |
| 1.69e6 | 1.69e6 | 1.25e6 | 1.42e6 | inactive | capu (GeneID 33611) | 3 |
| 1.46e6 | 1.43e6 | 9.48e5 | 9.59e5 | inactive | capu (GeneID 33611) | 4 |
| 5.68e5 | – | 7.73e5 | – | inactive | pkm (GeneID 32108) | 1 |
| 1.44e6 | 1.39e6 | 9.87e5 | 1.08e6 | inactive | Femcoat (GeneID 31367) | 1 |
| 1.56e6 | 1.56e6 | 1.15e6 | 1.25e6 | inactive | CG6178 (GeneID 42867) | 1 |
| 4.99e5 | – | 7.99e5 | – | inactive | CG5646 (GeneID 43311) | 1 |
| 1.44e6 | 1.51e6 | 1.23e6 | 1.26e6 | inactive | Mapmodulin (GeneID 37043) | 1 |
| 1.59e6 | 1.68e6 | 1.42e6 | 1.57e6 | inactive | CG13561 (GeneID 37765) | 1 |
| 1.43e6 | 1.51e6 | 1.38e6 | 1.48e6 | inactive | CG17839 (GeneID 39616) | 1 |
| 1.51e6 | 1.72e6 | 1.21e6 | 1.36e6 | inactive | CG17839 (GeneID 39616) | 2 |
| 1.60e6 | 1.62e6 | 1.35e6 | 1.46e6 | inactive | CG17059 (GeneID 50227) | 1 |
| 1.64e6 | 1.75e6 | 1.04e6 | 1.16e6 | inactive | CG42249 (GeneID 32043) | 1 |
| 1.87e6 | 1.72e6 | 1.14e6 | 1.27e6 | inactive | CG42249 (GeneID 32043) | 2 |
| 1.57e6 | 1.67e6 | 1.18e6 | 1.40e6 | inactive | Tg (GeneID 34093) | 1 |
| 1.26e6 | 1.32e6 | 1.09e6 | 1.22e6 | inactive | Idua (GeneID 34544) | 1 |
| 1.34e6 | 1.45e6 | 1.04e6 | 1.07e6 | inactive | CG10151 (GeneID 36639) | 1 |
| 1.29e6 | 1.46e6 | 1.10e6 | 1.17e6 | inactive | Tspo (GeneID 33231) | 1 |
| 1.58e6 | 1.57e6 | 1.23e6 | 1.31e6 | inactive | Mau2 (GeneID 41830) | 1 |
| 1.74e6 | 1.86e6 | 1.40e6 | 1.62e6 | inactive | CG13123 (GeneID 34303) | 1 |

Entries listed so far with an active call (1):
| Kc cell number, rep 1 | Kc cell number, rep 2 | S2R+ cell number, rep 1 | S2R+ cell number, rep 2 | Outcome | Gene | reagent |
| --- | --- | --- | --- | --- | --- | --- |
| 2.89e5 | – | 4.78e5 | – | active | Rpn2 (GeneID 43449) | 1 |
